Article PMC13337110, “Pericentrosomal Redistribution of the Endoplasmic Reticulum Ensures Organelle Symmetric Inheritance and Mitotic Progression” (Advanced Science, 2026)
No constants are given. Whether binding was seen depends on the method and setting. Binding seen in cells or lysates may run through a third protein. Some binding calls cover weakened binding; strength is not graded here. Values belong to the substance of their own block, whether it stands above or below them.

By UniProt entry, the sequences of proteins in these tests, tags left out. Where a name states a change or a piece, a line headed by the entry shows the natural chain unless it says otherwise. Chains listed by the source or under a name are the forms on record and can include a tag or linker.
3×Flag-RTN4B full-length (FL) (Q9NQC3-2, form named): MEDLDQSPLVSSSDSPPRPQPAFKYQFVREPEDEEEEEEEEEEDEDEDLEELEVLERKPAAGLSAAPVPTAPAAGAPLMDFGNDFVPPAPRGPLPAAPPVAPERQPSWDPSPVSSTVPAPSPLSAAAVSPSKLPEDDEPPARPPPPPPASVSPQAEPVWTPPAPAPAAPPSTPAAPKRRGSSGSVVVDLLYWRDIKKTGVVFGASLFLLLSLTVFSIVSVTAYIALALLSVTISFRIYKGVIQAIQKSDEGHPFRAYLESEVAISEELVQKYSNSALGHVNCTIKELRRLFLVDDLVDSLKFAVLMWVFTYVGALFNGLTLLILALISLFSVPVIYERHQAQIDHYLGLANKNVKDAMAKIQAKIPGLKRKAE
2×Strep-HA-RTN4B 6D (Q9NQC3-2, form named): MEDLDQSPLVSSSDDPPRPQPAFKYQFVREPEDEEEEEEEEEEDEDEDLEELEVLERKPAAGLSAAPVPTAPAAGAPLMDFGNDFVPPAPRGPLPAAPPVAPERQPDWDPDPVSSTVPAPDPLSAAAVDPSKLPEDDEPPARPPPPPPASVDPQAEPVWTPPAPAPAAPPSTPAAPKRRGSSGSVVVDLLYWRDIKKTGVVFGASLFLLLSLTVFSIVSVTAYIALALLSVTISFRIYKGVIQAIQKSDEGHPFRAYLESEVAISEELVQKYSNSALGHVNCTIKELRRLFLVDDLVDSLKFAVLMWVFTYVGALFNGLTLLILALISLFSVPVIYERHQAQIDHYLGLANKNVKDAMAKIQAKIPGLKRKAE

How the values were obtained:
[1] = target: T1, FIP3 (human) (UniProt O75154); assay: co-IP; co-immunoprecipitation; baits, tags and cells only in Figures S5B and S5E
T1 sequence: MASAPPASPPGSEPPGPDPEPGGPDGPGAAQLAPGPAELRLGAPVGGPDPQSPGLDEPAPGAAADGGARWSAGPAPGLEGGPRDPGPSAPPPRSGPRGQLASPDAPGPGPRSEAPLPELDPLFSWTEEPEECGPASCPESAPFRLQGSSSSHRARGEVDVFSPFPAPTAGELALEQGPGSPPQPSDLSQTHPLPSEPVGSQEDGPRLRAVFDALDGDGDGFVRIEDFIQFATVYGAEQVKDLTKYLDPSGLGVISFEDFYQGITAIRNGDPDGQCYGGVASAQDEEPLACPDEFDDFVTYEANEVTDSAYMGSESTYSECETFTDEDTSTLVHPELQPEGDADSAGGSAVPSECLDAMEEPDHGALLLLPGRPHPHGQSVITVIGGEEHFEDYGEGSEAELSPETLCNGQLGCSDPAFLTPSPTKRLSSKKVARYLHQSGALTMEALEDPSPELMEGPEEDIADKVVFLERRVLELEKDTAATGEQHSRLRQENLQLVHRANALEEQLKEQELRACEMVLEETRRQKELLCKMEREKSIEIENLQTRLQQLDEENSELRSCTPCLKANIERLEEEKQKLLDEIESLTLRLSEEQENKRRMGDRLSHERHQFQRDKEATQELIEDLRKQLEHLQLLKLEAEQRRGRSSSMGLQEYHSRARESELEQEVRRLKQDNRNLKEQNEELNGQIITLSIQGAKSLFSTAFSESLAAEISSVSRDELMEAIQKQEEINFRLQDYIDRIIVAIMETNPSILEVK

[2] = target: Rab11A (construct not stated; Figures S5B, S5D) (human) (UniProt P62491); assay: as above
[3] = target: T2, Rab11B (human) (UniProt Q15907); assay: as above
T2 sequence: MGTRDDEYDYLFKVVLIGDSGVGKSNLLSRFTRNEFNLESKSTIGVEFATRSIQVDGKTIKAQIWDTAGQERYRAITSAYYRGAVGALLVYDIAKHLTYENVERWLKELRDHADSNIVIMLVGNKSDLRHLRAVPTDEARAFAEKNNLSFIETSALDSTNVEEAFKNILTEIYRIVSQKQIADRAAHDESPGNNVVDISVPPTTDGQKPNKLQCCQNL

[4] = target: mEmerald-Rab11A (HEK293T, overexpressed) (human) (UniProt P62491); assay: co-IP; lysates of HEK293T cells overexpressing mEmerald-Rab11A and 3×Flag-RTN4B constructs; anti-GFP nanobody agarose beads, 2 h at 4°C; Western blot
[5] = target: mEmerald-Rab11A (HeLa, stable) (human) (UniProt P62491); assay: co-IP; lysates of HeLa cells stably expressing mEmerald-Rab11A (asynchronous or STLC-arrested mitotic; or co-expressing 2×Strep-HA-RTN4B variants); anti-GFP nanobody agarose beads, 2 h at 4°C; 50 mM Tris-HCl, 150 mM NaCl, 1% Triton X-100, 1 mM EDTA, pH 7.4; Western blot

binding [1]: binds
binding [2]: binds
binding [3]: binds
Substance: RTN4 (construct not stated; Figures S4H, S5B, S5D, S5E, S5F) (from UniProt Q9NQC3-2 1-373)

binding [4]: binds
Substance: 3×Flag-RTN4B full-length (FL) (from UniProt Q9NQC3-2 1-373)

binding [5]: binds
Substance: 2×Strep-HA-RTN4B 6D (from UniProt Q9NQC3-2 1-373)
